Some of the results follow.
Experiments:
Assay in all cases: log2 fold change, soluble protein after heating vs DMSO (PISA); higher = thermal stabilisation; K562 lysate, 10 uM; active = over 0.2 and 3.5 SD of the protein, either way, in both replicates (recomputed)
erlotinib = compound: C#Cc1cccc(Nc2ncnc3cc(OCCOC)c(OCCOC)cc23)c1 [erlotinib]
Procedure, shortened: (§1)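 K562 pellets were dounce-homogenised in PBS pH 7.4 containing 1 mM MgCl2, and the crude extract, at 1 mg/mL protein, was exposed to 10 μM compound for 30 min. Aliquots were heated for 3 min across 48°C-58°C, pooled, brought to 0.5% NP-40 at 4°C and spun at 21,000xg for 90 min, with the supernatant taken as soluble protein. TMTpro 16plex LC-MS/MS with equalised channel sums quantified that protein. Values are log-two fold changes in thermal stability relative to solvent controls, taken from duplicates.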

Sequences of proteins named here, by UniProt entry; tags and fusion partners are left off. A change or cut given only in a name is not applied to a line headed by its entry.
UniProt Q9BRT3: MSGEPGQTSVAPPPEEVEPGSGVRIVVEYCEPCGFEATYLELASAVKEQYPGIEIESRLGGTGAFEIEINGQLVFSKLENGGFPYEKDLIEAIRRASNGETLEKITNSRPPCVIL
UniProt Q96BX8: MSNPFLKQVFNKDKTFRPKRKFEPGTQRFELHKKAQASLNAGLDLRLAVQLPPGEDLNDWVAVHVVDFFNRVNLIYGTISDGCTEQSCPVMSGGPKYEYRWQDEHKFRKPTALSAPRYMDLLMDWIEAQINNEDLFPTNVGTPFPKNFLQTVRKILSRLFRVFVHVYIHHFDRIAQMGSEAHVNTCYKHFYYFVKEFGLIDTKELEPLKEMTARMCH
UniProt Q9UL63, whole entry, looked up: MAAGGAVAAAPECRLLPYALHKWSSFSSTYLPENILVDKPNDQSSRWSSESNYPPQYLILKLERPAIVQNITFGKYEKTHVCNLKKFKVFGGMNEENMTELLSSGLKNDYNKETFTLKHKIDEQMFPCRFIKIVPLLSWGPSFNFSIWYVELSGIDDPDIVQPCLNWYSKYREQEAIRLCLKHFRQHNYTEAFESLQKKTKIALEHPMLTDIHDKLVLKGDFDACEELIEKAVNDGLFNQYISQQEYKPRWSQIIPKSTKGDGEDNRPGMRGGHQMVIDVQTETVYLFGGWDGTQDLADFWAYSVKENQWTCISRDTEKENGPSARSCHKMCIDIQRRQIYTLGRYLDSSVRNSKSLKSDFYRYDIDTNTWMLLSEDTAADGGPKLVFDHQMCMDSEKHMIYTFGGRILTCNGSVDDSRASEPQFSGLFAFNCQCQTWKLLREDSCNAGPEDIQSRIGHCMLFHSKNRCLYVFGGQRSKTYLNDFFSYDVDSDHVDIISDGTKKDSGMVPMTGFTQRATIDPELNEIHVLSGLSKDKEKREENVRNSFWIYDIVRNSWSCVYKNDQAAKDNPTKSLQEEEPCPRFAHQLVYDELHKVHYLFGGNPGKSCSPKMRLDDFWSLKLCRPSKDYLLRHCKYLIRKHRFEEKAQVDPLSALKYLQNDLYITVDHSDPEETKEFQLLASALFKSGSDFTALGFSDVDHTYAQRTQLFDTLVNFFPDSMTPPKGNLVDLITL
UniProt Q8N3R9: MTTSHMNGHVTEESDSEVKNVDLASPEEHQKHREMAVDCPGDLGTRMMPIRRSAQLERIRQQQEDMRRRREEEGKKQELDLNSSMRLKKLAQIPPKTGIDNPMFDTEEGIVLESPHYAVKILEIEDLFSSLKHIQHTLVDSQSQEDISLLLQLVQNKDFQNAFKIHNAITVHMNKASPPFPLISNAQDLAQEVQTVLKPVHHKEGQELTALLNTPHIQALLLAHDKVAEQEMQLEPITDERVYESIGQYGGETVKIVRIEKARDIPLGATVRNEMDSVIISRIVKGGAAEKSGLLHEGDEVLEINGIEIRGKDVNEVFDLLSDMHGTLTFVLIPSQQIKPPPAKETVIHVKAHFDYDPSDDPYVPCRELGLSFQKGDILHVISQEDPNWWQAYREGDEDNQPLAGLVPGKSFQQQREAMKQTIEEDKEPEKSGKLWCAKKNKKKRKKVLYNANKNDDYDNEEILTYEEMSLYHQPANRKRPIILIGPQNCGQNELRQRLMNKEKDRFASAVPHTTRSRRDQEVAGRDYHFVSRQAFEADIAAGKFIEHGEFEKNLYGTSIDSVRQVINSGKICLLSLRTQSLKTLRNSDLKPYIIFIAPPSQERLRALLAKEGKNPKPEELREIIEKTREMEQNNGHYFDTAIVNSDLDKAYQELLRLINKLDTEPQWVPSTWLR
UniProt Q9NV56, whole entry, looked up: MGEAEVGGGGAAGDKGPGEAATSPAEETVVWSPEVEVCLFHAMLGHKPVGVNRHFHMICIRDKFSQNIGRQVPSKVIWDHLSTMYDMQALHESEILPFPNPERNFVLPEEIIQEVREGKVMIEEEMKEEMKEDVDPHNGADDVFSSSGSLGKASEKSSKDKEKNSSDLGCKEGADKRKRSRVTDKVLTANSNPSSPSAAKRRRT
UniProt Q8N344: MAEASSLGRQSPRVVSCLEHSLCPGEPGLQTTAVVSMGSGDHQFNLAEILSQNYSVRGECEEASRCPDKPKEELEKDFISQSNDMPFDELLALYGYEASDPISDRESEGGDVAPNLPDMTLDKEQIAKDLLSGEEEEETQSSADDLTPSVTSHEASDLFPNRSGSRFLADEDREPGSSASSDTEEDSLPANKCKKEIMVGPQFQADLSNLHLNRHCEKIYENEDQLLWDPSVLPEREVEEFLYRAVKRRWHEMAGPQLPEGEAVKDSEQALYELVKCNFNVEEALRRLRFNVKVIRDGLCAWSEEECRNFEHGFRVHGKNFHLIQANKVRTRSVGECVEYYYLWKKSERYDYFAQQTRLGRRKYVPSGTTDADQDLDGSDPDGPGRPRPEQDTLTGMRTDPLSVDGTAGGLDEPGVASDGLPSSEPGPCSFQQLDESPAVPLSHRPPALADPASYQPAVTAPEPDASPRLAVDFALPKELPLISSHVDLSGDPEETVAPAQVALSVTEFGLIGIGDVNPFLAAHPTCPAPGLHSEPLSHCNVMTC
UniProt Q03111: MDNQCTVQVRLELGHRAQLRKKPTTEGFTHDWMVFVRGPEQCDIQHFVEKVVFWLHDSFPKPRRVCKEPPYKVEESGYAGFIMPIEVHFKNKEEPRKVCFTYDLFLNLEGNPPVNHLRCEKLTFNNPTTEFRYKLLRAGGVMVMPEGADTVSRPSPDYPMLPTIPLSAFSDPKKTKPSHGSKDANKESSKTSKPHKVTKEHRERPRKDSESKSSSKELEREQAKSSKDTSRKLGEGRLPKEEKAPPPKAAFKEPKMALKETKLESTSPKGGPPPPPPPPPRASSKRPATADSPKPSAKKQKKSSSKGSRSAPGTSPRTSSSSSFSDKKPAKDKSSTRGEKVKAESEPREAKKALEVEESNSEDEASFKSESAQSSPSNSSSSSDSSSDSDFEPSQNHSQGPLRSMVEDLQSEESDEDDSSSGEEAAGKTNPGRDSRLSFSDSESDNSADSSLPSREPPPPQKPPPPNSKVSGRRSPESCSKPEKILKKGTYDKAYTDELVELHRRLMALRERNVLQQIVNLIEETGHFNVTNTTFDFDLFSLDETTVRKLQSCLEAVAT
UniProt Q8NHP6: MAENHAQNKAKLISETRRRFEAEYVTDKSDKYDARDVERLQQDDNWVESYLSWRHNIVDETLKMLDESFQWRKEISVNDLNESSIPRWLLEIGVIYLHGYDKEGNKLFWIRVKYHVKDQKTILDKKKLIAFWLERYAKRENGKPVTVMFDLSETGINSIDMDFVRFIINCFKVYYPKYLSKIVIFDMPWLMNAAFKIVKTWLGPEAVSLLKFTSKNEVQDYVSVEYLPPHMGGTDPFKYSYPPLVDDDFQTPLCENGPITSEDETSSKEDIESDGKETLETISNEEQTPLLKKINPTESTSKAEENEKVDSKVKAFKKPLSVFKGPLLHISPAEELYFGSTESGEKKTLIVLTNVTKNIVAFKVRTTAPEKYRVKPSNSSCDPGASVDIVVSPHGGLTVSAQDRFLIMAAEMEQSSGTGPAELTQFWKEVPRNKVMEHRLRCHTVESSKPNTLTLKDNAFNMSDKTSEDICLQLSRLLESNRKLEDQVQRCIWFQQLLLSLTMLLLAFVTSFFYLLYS
UniProt Q5JRA6: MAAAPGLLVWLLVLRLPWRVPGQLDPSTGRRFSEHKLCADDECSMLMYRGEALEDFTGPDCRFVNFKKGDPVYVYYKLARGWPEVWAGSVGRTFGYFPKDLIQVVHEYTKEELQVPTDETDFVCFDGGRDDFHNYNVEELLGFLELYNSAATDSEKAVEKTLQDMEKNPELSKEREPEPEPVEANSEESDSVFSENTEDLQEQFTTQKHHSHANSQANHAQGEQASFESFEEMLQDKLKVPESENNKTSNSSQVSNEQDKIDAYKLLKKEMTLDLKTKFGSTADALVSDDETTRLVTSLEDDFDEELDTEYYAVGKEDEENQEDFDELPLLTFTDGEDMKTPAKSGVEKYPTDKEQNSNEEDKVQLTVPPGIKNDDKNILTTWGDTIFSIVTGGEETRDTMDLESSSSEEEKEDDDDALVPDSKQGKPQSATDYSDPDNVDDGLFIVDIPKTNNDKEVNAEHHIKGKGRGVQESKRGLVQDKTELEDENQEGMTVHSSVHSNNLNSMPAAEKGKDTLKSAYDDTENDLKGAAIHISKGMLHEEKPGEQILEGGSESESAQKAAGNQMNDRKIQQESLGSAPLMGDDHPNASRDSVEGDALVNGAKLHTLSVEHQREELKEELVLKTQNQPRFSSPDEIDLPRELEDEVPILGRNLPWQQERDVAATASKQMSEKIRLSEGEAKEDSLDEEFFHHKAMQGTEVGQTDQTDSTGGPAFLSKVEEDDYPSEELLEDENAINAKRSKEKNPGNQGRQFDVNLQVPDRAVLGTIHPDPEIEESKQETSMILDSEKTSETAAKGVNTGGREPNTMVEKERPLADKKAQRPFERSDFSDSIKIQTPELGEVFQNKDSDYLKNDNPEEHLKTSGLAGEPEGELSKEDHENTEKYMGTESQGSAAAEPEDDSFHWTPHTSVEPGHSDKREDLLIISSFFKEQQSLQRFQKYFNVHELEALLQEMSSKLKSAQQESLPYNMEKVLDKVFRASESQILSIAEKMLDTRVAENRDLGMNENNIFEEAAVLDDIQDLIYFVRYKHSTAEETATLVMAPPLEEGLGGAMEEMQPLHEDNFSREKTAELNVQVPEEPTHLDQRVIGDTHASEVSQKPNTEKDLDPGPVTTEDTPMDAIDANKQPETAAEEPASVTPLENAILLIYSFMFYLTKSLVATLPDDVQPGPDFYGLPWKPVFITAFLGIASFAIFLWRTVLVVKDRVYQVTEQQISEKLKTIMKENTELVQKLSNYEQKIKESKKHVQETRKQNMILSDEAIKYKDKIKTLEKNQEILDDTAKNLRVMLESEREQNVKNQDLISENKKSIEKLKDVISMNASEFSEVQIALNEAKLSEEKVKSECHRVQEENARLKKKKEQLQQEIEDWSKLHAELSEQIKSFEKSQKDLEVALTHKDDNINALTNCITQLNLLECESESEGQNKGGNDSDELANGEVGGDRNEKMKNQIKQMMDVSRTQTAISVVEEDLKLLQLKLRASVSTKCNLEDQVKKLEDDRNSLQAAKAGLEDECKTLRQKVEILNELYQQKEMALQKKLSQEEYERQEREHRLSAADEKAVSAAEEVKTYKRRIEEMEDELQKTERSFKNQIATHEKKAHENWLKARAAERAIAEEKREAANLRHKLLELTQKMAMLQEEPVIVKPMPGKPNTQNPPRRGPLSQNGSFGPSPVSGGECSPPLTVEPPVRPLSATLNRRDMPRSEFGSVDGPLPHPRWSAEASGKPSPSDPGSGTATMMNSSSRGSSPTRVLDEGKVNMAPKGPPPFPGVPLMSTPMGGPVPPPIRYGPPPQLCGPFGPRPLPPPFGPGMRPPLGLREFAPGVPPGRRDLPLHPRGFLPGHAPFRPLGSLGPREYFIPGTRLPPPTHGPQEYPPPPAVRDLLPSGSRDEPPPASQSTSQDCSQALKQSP
UniProt Q99735: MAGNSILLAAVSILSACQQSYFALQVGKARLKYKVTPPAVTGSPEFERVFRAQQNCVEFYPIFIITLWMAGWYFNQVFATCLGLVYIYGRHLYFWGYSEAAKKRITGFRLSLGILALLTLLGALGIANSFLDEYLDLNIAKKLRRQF
UniProt P51948: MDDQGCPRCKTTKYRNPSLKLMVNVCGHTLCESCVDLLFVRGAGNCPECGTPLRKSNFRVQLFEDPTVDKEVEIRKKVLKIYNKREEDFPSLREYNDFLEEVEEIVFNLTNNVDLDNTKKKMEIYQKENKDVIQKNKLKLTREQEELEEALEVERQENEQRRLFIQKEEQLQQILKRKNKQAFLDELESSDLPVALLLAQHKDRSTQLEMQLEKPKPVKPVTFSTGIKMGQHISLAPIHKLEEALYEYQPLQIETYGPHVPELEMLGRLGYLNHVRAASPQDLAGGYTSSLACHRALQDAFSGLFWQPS
UniProt Q9UBU8, whole entry, looked up: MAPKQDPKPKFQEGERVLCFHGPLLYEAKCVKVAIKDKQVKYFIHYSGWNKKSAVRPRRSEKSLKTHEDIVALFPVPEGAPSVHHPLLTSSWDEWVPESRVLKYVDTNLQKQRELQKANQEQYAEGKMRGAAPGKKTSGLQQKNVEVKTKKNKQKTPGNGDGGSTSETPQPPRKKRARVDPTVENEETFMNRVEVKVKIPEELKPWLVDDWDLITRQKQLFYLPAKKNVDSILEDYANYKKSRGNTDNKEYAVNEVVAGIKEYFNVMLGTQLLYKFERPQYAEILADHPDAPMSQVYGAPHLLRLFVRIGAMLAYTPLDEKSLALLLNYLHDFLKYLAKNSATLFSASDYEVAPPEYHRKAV
UniProt A9UHW6: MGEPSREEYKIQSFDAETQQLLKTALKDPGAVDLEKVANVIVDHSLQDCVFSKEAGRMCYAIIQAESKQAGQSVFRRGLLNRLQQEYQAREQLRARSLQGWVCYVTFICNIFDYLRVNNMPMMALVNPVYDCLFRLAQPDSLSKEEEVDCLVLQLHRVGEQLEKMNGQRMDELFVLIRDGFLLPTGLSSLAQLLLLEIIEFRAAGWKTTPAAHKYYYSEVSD

[1] = compound: C/C(=N\NC(=O)C1=CC(=CC=C1)S(=O)(=O)N2CCOCC2)/C3=C(C=CC(=C3)Cl)O
Procedure, shortened: as §1

[2] = compound: C1=CC(=CC=C1C2=NC3=C(N2)C=C(C=C3)C(=O)N)OC4=CC=C(C=C4)Cl
Procedure, shortened: as §1

[3] = compound: C1=CC2=C(C=CC(=C2)/C=C\3/C(=O)NC(=NCC4=CC=CS4)S3)N=C1
Procedure, shortened: as §1

[4] = compound: C1=CC2=NC=CN=C2C=C1/C=C/3\C(=O)NC(=O)S3
Procedure, shortened: as §1

[5] = compound: C1=CC=C(C=C1)C2=NC(=C(N2)C3=CC=NC=C3)C4=CC(=C(C=C4)Cl)O
Procedure, shortened: as §1

[6] = compound: C1=CC=C2C(=C1)C3=NNC4=CC=CC(=C43)C2=O
Procedure, shortened: as §1

[7] = compound: C1CCN(C1)C(=O)NC2=CC=CC(=C2)NC3=NC=C(C(=N3)NCCC4=CN=CN4)Br
Procedure, shortened: as §1

[8] = compound: C1CN(CCC1(CC2=CC=C(C=C2)Cl)N)C3=NC=NC4=C3C=CN4
Procedure, shortened: as §1

IRAK-1-4 Inhibitor I = compound: C1COCCN1CCN2C3=CC=CC=C3N=C2NC(=O)C4=CC(=CC=C4)[N+](=O)[O-] [IRAK-1-4 Inhibitor I]
Procedure, shortened: as §1

Measured: log2 fold change

MIEN1 (UniProt Q9BRT3)
inactive: erlotinib 0.02 | [1] 0.036 | [2] -0.063 | [3] 0.022 | [4] -0.049 | [5] -0.007 | [6] -0.021 | [7] -0.027 | [8] 0.047 | IRAK-1-4 Inhibitor I -0.026

MOB3A (UniProt Q96BX8)
inactive: erlotinib -0.067 | [1] -0.089 | [2] -0.06 | [3] 0.061 | [4] 0.045 | [5] 0.054 | [6] 0.11 | [7] 0.065 | [8] 0.014 | IRAK-1-4 Inhibitor I 0.032

MKLN1 (UniProt Q9UL63)
inactive: erlotinib 0.006 | [1] 0.009 | [2] 0.022 | [3] 0.011 | [4] -0.007 | [5] 0.012 | [6] 0 | [7] -0.019 | [8] -0.009 | IRAK-1-4 Inhibitor I -0.016

MIOS (UniProt Q9NXC5)
inactive: erlotinib -0.003 | [1] -0.007 | [2] 0.005 | [3] 0.034 | [4] 0.016 | [5] 0.02 | [6] -0.021 | [7] -0.025 | [8] -0.001 | IRAK-1-4 Inhibitor I -0.017

MPP5 (UniProt Q8N3R9)
inactive: erlotinib 0.039 | [1] -0.009 | [2] 0.027 | [3] -0.016 | [4] 0.038 | [5] 0.01 | [6] -0.038 | [7] -0.028 | [8] -0.013 | IRAK-1-4 Inhibitor I 0.085

MRGBP (UniProt Q9NV56)
inactive: erlotinib -0.055 | [1] -0.017 | [2] 0.023 | [3] 0.053 | [4] -0.032 | [5] 0.055 | [6] -0.039 | [7] 0.084 | [8] -0.01 | IRAK-1-4 Inhibitor I -0.038

MRFAP1 (UniProt Q9Y605)
inactive: erlotinib -0.032 | [1] -0.204 | [2] -0.024 | [3] 0.007 | [4] 0.177 | [5] -0.044 | [6] 0.007 | [7] -0.013 | [8] 0.023 | IRAK-1-4 Inhibitor I 0.091

MOV10 (UniProt Q9HCE1)
inactive: erlotinib -0.005 | [1] 0.015 | [2] -0.019 | [3] -0.003 | [4] -0.015 | [5] -0.004 | [6] -0.015 | [7] 0 | [8] 0.012 | IRAK-1-4 Inhibitor I -0.016

MIER2 (UniProt Q8N344)
inactive: erlotinib -0.011 | [1] -0.043 | [2] 0.226 | [3] -0.038 | [4] 0 | [5] 0.057 | [6] 0.085 | [7] -0.055 | [8] 0.749 | IRAK-1-4 Inhibitor I 0.001

MPHOSPH6 (UniProt Q99547)
inactive: erlotinib 0.012 | [1] -0.026 | [2] 0.024 | [3] -0.007 | [4] -0.028 | [5] -0.011 | [6] -0.02 | [7] -0.054 | [8] 0.006 | IRAK-1-4 Inhibitor I -0.036

MLLT1 (UniProt Q03111)
inactive: erlotinib -0.038 | [1] -0.014 | [2] -0.025 | [3] 0.059 | [4] -0.044 | [5] 0.015 | [6] 0.021 | [7] 0.061 | [8] -0.006 | IRAK-1-4 Inhibitor I 0.034

MOSPD2 (UniProt Q8NHP6)
inactive: erlotinib -0.049 | [1] 0.152 | [2] 0 | [3] 0.072 | [4] 0.027 | [5] -0.015 | [6] 0.157 | [7] -0.062 | [8] -0.023 | IRAK-1-4 Inhibitor I 0.057

MICU1 isoform 3 (UniProt Q9BPX6)
inactive: erlotinib 0.009 | [1] 0.049 | [2] -0.029 | [3] -0.017 | [4] -0.012 | [5] -0.047 | [6] 0.001 | [7] 0.016 | [8] 0.012 | IRAK-1-4 Inhibitor I 0.024

MIA3 (UniProt Q5JRA6)
inactive: erlotinib -0.012 | [1] -0.033 | [2] 0.04 | [3] 0.015 | [4] -0.039 | [5] -0.02 | [6] -0.091 | [7] -0.009 | [8] 0.009 | IRAK-1-4 Inhibitor I -0.01

MNX1 (UniProt P50219)
inactive: erlotinib -0.028 | [1] -0.011 | [2] 0.092 | [3] -0.045 | [4] 0.138 | [5] -0.041 | [6] 0.011 | [7] 0.123 | [8] 0.053 | IRAK-1-4 Inhibitor I -0.043

MGST2 (UniProt Q99735)
inactive: erlotinib -0.03 | [1] 0 | [2] 0.099 | [3] 0.002 | [4] -0.002 | [5] -0.031 | [6] -0.089 | [7] -0.097 | [8] 0.185 | IRAK-1-4 Inhibitor I -0.031

MORF4L2 (UniProt Q15014)
inactive: erlotinib -0.021 | [1] -0.008 | [2] 0 | [3] -0.021 | [4] -0.052 | [5] 0.001 | [6] -0.046 | [7] -0.009 | [8] 0.038 | IRAK-1-4 Inhibitor I -0.022

MMADHC (UniProt Q9H3L0)
inactive: erlotinib 0.049 | [1] -0.005 | [2] 0.012 | [3] 0.012 | [4] 0 | [5] 0.004 | [6] 0.012 | [7] -0.001 | [8] 0.01 | IRAK-1-4 Inhibitor I 0.017

MRPL19 (UniProt P49406)
inactive: erlotinib 0.02 | [1] 0.079 | [2] -0.041 | [3] -0.003 | [4] -0.007 | [5] -0.032 | [6] -0.019 | [7] -0.014 | [8] 0.005 | IRAK-1-4 Inhibitor I 0

MNAT1 (UniProt P51948)
inactive: erlotinib -0.014 | [1] -0.043 | [2] 0.025 | [3] -0.089 | [4] -0.009 | [5] -0.004 | [6] 0.022 | [7] -0.008 | [8] 0.048 | IRAK-1-4 Inhibitor I 0.012

MKRN2 (UniProt Q9H000)
inactive: erlotinib 0.017 | [1] -0.013 | [2] 0.041 | [3] -0.033 | [4] -0.025 | [5] 0.103 | [6] 0.014 | [7] -0.015 | [8] 0.028 | IRAK-1-4 Inhibitor I 0.019

MORF4L1 isoform 2 (UniProt Q9UBU8)
inactive: erlotinib 0.028 | [1] 0.06 | [2] 0.046 | [3] -0.027 | [4] -0.032 | [5] -0.005 | [6] 0.017 | [7] -0.04 | [8] -0.01 | IRAK-1-4 Inhibitor I 0.013

MIF4GD isoform 3 (UniProt A9UHW6)
inactive: erlotinib -0.006 | [1] 0.041 | [2] 0.03 | [3] 0.028 | [4] -0.073 | [5] 0.039 | [6] -0.03 | [7] -0.052 | [8] 0.051 | IRAK-1-4 Inhibitor I -0.04

MIA2 (UniProt Q96PC5)
inactive: erlotinib -0.083 | [1] -0.048 | [2] -0.019 | [3] 0.047 | [4] -0.047 | [5] -0.067 | [6] -0.028 | [7] -0.009 | [8] 0.02 | IRAK-1-4 Inhibitor I -0.008

MIER1 isoform 12 (UniProt Q8N108)
inactive: erlotinib -0.04 | [1] -0.018 | [2] 0.039 | [3] -0.001 | [4] -0.026 | [5] -0.035 | [6] 0.007 | [7] -0.01 | [8] 0.022 | IRAK-1-4 Inhibitor I -0.002

MRPL16 (UniProt Q9NX20)
inactive: erlotinib 0.054 | [1] -0.008 | [2] -0.024 | [3] 0.052 | [4] 0.104 | [5] -0.02 | [6] 0.053 | [7] 0 | [8] 0.113 | IRAK-1-4 Inhibitor I 0.026

Copied from the listing (2 entries):
MIF4GD isoform 3 (UniProt A9UHW6)
inactive: erlotinib -0.006 | [1] 0.041 | [2] 0.03 | [3] 0.028 | [4] -0.073 | [5] 0.039 | [6] -0.03 | [7] -0.052 | [8] 0.051 | IRAK-1-4 Inhibitor I -0.04

MIA2 (UniProt Q96PC5)
inactive: erlotinib -0.083 | [1] -0.048 | [2] -0.019 | [3] 0.047 | [4] -0.047 | [5] -0.067 | [6] -0.028 | [7] -0.009 | [8] 0.02 | IRAK-1-4 Inhibitor I -0.008

The list continues:

MICB, A0A140T979
inactive: erlotinib 0.022 | [1] 0.086 | [2] -0.029 | [3] -0.07 | [4] -0.168 | [5] 0.034 | [6] 0.046 | [7] -0.021 | [8] 0.275 | IRAK-1-4 Inhibitor I 0.023

MOCS1 isoform 8 (UniProt Q9NZB8)
inactive: erlotinib -0.055 | [1] -0.002 | [2] 0.074 | [3] 0.058 | [4] -0.008 | [5] 0.026 | [6] 0 | [7] -0.056 | [8] 0.183 | IRAK-1-4 Inhibitor I 0.02

MRPL23 (UniProt Q16540)
inactive: erlotinib -0.033 | [1] 0.049 | [2] 0.036 | [3] 0.037 | [4] -0.021 | [5] 0.015 | [6] -0.057 | [7] 0.013 | [8] 0.009 | IRAK-1-4 Inhibitor I 0.094

MPV17 (UniProt P39210)
inactive: erlotinib 0.08 | [1] 0.243 | [2] -0.06 | [3] 0.056 | [4] -0.084 | [5] 0.071 | [6] 0.068 | [7] -0.034 | [8] -0.085 | IRAK-1-4 Inhibitor I 0.093

From the supplement of paper PMC10849652
